Reference: patent US10416175B2, “Opioid detection” (Randox Laboratories Limited, priority 2015, dated 2019)
Structures can show the parent of a compound that is named as a salt. At least one compound was matched to its structure with a doubt left.

Tests used:
[1] = tested on: Bio-Quant Tramadol commercial immunoassay; details: cited from earlier work
[2] = tested on: Immunanalysis Tramadol commercial immunoassay; details: cited from earlier work
[3] = tested on: IDS Tramadol commercial immunoassay; details: cited from earlier work
[4] = tested on: Neogen Tramadol commercial immunoassay; details: cited from earlier work
[5] = tested on: Randox Tramadol commercial immunoassay; details: cited from earlier work
[6] = tested on: antibody raised against Immunogen-2; assay: Competitive ELISA with polyclonal antibody raised against Immunogen-2, Tracer-1 as detecting agent; assay type: binding, sheep
Protocol: Pre-immunization blood samples are collected from sheep. In order to generate polyclonal antisera, 2 mgs of the immunogen (structure 1) is prepared in PBS, mixed at a ratio of 50% immunogen in PBS to 50% Freund's Complete adjuvant (Sigma, Product Number F5881) and emulsified by repeatedly passing the mixture through a tip on the end of a 1 ml syringe, until it reaches the required semi-solid consistency. 1.1 ml of the emulsified mixture is injected intramuscularly into each host animal (sheep) as the primary immunisation dose. Further injections (boosts) are prepared (1 mg of immunogen is prepared in PBS and mixed at a ratio of 50% Immunogen in PBS/50% Freunds Incomplete adjuvant, Sigma, Product Number—F5506). Boost injections are delivered intramuscularly at monthly intervals, 1 ml per animal. Serum is sampled monthly by collection of whole blood from the jugular vein for evaluation of the antibody titre. The degree of antibody purification required depends on the intended application. For many purposes, there is no requirement for purification of the serum, however, in other cases, such as, where the antibody is to be immobilised on a solid support, purification steps (such as caprylic acid/ammonium sulphate precipitation) can be taken to remove undesired material and eliminate non-specific binding. In another embodiment, the purification is by immunoglobulin precipitation, antigen-specific affinity purification, column chromatography, such as, size-exclusion chromatography or ion exchange chromatography.
The polyclonal antibody raised against Immunogen-2 of Example 9 was removed from fridge or freezer and brought to room temperature. The antibody was diluted to 2.5 μg/ml in 10 mM Tris pH 8.5 and all appropriate wells are coated at 125 μl/well at 37° C. for 2 hours or at 4° C. overnight. The plate was washed 4 times over a period of 10 minutes with working strength tris-buffered saline and tween 20 (TBST) wash buffer and tapped dry. 50 μl of working strength TBST was pipetted into the appropriate wells. Dilutions of target analyte and potential crossreactant(s) were prepared in working strength TBST and pipetted (50 μl) into the appropriate wells beginning with the lowest concentration to the highest concentration. Hapten-HRP (Tracer-1) conjugate at the appropriate concentration was prepared in conjugate dilution buffer and 75 μl into pipetted into appropriate wells. The plate was tapped gently to mix contents, sealed and incubated at 25° C. for 1 hour. The plate was washed 6 times over a 10-15 minute period (3 quick washes followed by 3 additional washes over 12 minutes) and tapped dry thoroughly onto tissue paper. Trimethylbenzidine (TMB) solution (125 μl) was added to each well and tapped gently, and the plate was incubated at room temperature for 20 minutes in the dark. The reaction was stopped by addition of 125 μl of 0.2 M sulphuric acid to each well and the absorbance measured at 450 nm using an ELISA plate reader (Biotek Elx800).

COc1cccc([C@]2(O)CCCC[C@H]2CN(C)C)c1 (racemic) [Tramadol, (±)-cis-2-[(dimethylamino)methyl]-1-(3-methoxyphenyl)cyclohexanol hydrochloride]
% Cross-reactivity [1]: 13%
% Cross-reactivity [2]: 100%
% Cross-reactivity [3]: 100%
% Cross-reactivity [4]: 100%
% Cross-reactivity [5]: 100%
B/Bo ([6]; 0.156 ng/ml analyte): 97
B/Bo ([6]; 0.313 ng/ml analyte): 93
B/Bo ([6]; 0.625 ng/ml analyte): 94
B/Bo ([6]; 1.250 ng/ml analyte): 94
B/Bo ([6]; 2.500 ng/ml analyte): 95
B/Bo ([6]; 5.000 ng/ml analyte): 94
B/Bo ([6]; 10.000 ng/ml analyte): 94
% CR ([6]; relative to O-desmethyltramadol = 100): <<1.78%
